{"source": "patent US20250072421A1", "about": "“ARYL DIHYDROPYRAN DERIVATIVE OR SALT THEREOF, PEST CONTROL AGENT CONTAINING SAME, AND METHOD FOR USE THEREOF” (ADEKA Corporation, priority 2021, published 2025)", "tested_on": "Dirofilaria immitis", "experiment": "Influence evaluation test on the growth of Dirofilaria immitis", "format": "cell-based", "settings": "10 µM", "note": "Some entries share one result that the patent states for a list of compounds. At least one structure is not confirmed: it was looked up by name or label, or the drawing left a doubt."}
{"smiles": "O=C(Nc1ccc2c(c1)OCO2)C1=C(O)CC(c2ccc(C(F)(F)F)cc2)OC1=O", "note": "(stereo not shown) [1-15]", "values": [{"measurement": "development inhibition rate from the L3 stage larva to the L4-stage larva", "value": "not less than 50%"}]}
